# In PubChem BioAssay AID1347426 (Functional Genomics Laboratory (NCATS/FGL), 2020):
# The campaign covered roughly 31,000 sequences. About 1,400 (4.5%) were called active.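 Rule for the calls: active = median seed-adjusted z-score above 1 or below -1; inactive = the rest.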 Some of the results follow.
# Assay: Novel Modifiers of Survival Motor Neuron (SMN) Protein: Gene Identification via Genome-wide siRNA Screen;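 note: luminescence tracks full-length SMN protein made from the SMN2 reporter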
# Conditions: HEK293T SMN2-luciferase reporter, siRNA knockdown, 72 h; actives lie on both sides
# Method in brief: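 Each of three siRNAs per gene is reverse-transfected (1 pmol) into reporter HEK293T cells whose luciferase output tracks SMN protein level. After 72 h culture, ONE-Glo luminescence is control-normalized, log10-transformed and MAD-standardized; Common Seed Analysis deprioritizes seed-driven hits.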
row,Sequence,median seed-adjusted z-score
1,GAGCAAUGACUGUAAGUAUTT against SLC26A7,inactive: 0.561
2,ACUAACAUCCCAGACUUUATT against VWA1,inactive: 0.289
3,GAAUAUGUGGGCUAAGAAATT against COX6C,inactive: -0.0449
4,GCAAAUAACAUAUGCUGUUTT against WFDC10A,inactive: -0.439
5,GGAAGCUACUGAACCCUCATT against DGKQ,inactive: -0.0985
6,CACUCGUUCCGGUUCCUUUTT against ZNF439,inactive: -0.26
7,ACGGCUACUUCAACGAGAATT against NPFFR1,inactive: -0.613
8,GGGAGAUCACGUUCCUGAATT against COMP,inactive: 0.331
9,GAGAGAUACCAGACCAUCATT against RAB15,inactive: -0.616
10,CAAGUCACCUGUUACCUCATT against APOBEC3H,inactive: 0.256
11,CCGAAAUUCAAUUAACUAUTT against BMPR2,inactive: 0
12,GAACAAUUGUAACGAAUGATT against PITPNB,inactive: 0.57
13,CCUUCCCUCUACACCAUCATT against COPZ2,active: -1.23
14,AGAGAAUUCUCUUCCAACATT against GSX2,inactive: -0.621
15,GGCAACUCAUAGUACCGUATT against ATP13A3,inactive: -0.619
16,CGGGAGUUUUUGGAACUGATT against MMS19L,inactive: 0.898
17,CUCUCUAUCUAAUAGGAUUTT against CDS2,inactive: -0.811
18,CCAUGCACUUUAUAUGGAUTT against DGAT2L3,inactive: 0.247
19,GAACAUCGUUAUAAGUUGATT against CNTN3,inactive: 0.732
20,GUUUCAUUGUAGUGGUUAATT against CXCR6,inactive: 0.71
21,CCACCUAUCAGAUUCGAAUTT against PIK3R4,inactive: -0.502
22,GGUUCUAUAGCAGACAAUATT against LOC81691,inactive: -0.285
23,UCCACAUUCCUGUUUGUAATT against JUND,inactive: -0.334
24,GCUCAUUCCAGGUCAAUCATT against MLL3,inactive: -0.248
25,GCAUGGAUCAUCUACAAAATT against UTP6,inactive: -0.253
26,CUACGACGGUGAUAUUGGATT against HDAC2,active: -1.27
27,AGACAAUAUUGGAAGAGGATT against DAB1,inactive: 0.307

row,Sequence,median seed-adjusted z-score
1,GGAAAGCAAUAAAAGUUAUTT against TAAR6,inactive: -0.124
2,GCAUCUACGGGCUCAAGUATT against ZNF512B,inactive: 0.212
3,AGAGGAUCCACACCACAGATT against ZNF324B,inactive: 0.176
4,GGCUGGAAAGGUUACUUCATT against SENP3,inactive: 0.543
5,GGAAGAAGCUUGUACGUGATT against AKAP13,inactive: 0.654
6,GCUUGAGUUUUGUACGGUUTT against XRCC1,inactive: 0.0431
7,CCUGCGCCUUUGUGACAUUTT against TRMT2A,inactive: -0.588
8,GGAUGGAGCAGGUUAAAGATT against HES2,inactive: -0.186
9,AAUCGAUCCUCAAUCCUUATT against ZNF676,inactive: -0.499
10,GCAUCUACCGGAUCCUGAUTT against DDX49,inactive: 0.0816
11,CCCAAAUUCUUGACCGAGATT against PCDHGA9,inactive: -0.125
12,AGCCGACAGUGGUGCACUATT against PLA2G15,inactive: 0
13,AGCUUACAGUGCAAAGACATT against MAPK8IP1,inactive: 0.576
14,GGAGCUUCGAAGAUGGAAATT against LARGE,inactive: -0.436
15,CCCUUUGUAUUGUAGAUAATT against CEBPD,inactive: -0.101
16,GGUACAAGAUGGUCAUUGATT against ABCC8,inactive: 0.24
17,GUCCUGAAAAGAUAUAUGATT against NDUFB5,inactive: -0.122
18,CAAGUACAGAUGAAGCUCATT against MFSD8,inactive: -0.461
19,GGAUGGUGGCGUCCAAGAUTT against PSMB10,inactive: 0.00939
20,GGACAAUUCGGCAGACUAUTT against STX4,inactive: 0.759
21,GAUACGGUAUGAGUUUAAATT against NOS1AP,inactive: 0.00192
22,UGUGCUCCAUCCCACCCAATT against CARHSP1,inactive: 0.384
23,GGCUGAUAGGGAUCAAGGATT against TBX10,inactive: 0.175
24,GCCUCAAUCCCUACGGUUATT against NKX2-5,inactive: 0.719
25,CAAGCAUCGUCAUCAUCUATT against PLAG1,inactive: 0.859
26,GGGCUUUCAUGUUACACGATT against FBN1,inactive: 0
27,GCAACUCUUGCUAAUCAUATT against ZNF680,inactive: 0.142
